Test results as given in patent US10857167B2, “Use of oligosaccharide compositions to enhance weight gain” (Children's Hospital Medical Center, priority 2015, dated 2020).
This continues a long series; more values of the same kind are listed elsewhere.

Test system: distal small bowel gene expression
Test: RNA sequencing / transcriptional analysis of small bowel 56 days after ICR (2′-FL signature response)
Format: in vivo, mouse
Excerpt: Luminal small bowel contents were expressed into AllProtect Tissue Reagent (Qiagen Inc, CA). Bacterial DNA was extracted using the AllPrep DNA/RNA Mini Kit (Qiagen Inc, CA), according to kit instructions and prior to sequencing (described below). Small bowel tissue samples for RNA were placed into RNA Later (Life Technologies, NY). RNA extraction was accomplished following Qiagen RNeasy Plus Kit instruction (Qiagen Inc, CA). All nucleic acid samples were then stored at -80 Celsius until sequenced (described below). Transcriptional analysis was carried out on resected and harvested small bowel samples obtained from operated mice taken to 8 weeks. Murine RNA sequencing libraries were prepared from approximately 1.5 μg RNA using the TruSeq RNA Sample Preparation Kit (Illumina, Calif.) and sequenced using the HiSeq 2000 Sequencing System (Illumina, Calif.) with single-end 50 bp reads. Following removal of primers and barcodes, sequences were aligned to the mm10 genome using reference annotations from UCSC (Rosenbloom et al. (2015) Nucleic acids research 43: […]-681) (n=36,186 entities). Aligned reads were quantified and used to compute reads per kilobase per million mapped reads (RPKM); raw counts were then normalized using the DESeq algorithm and each harvested sample was baselined to its own resected sample. A filter was applied to the data, requiring at least three reads in all samples of at least one of the four experimental conditions (n=14,489 entities). The data discussed in this publication have been deposited in NCBI's Gene Expression Omnibus and are accessible through NCBI Gene Expression Omnibus (GEO) Series accession number GSE72590. Edgar et al. (2002) Nucleic acids research 30: 207-210. In order to characterize the impact of 2'-FL supplementation while accounting for the effect of ileoecal resection, a t-test was applied between resected and harvested samples within control and experimental animals. Significance was set at a p-value of ≤0.05 and a fold change of 3, which generated 2,576 differentially regulated entities across two comparisons. Gene set unions and intersections of the control and experimental gene sets were identified through Venn diagrams. From the master list, the gene list specific to animals supplemented with 2'-FL were removed in order to identify genes differentially regulated only by ICR (n=546 entities); this gene set characterizes the adaptive response. Further, the 2'-FL response (n=2,030 entities) was identified by removing the adaptive response signature described above from the master list, leaving only genes regulated by 2'-FL supplementation after ICR which were not found in the non-supplemented adaptive response. Heatmaps were generated using hierarchical clustering with the Pearson's Centered distance metric and the average linkage rule; both entities and samples were clustered. All genomic analyses described above were performed in Strand NGS (Strand Life Sciences, CA). Gene list functional enrichment was initially discovered using ToppFun, a member of the ToppGene Suite. Chen et al. (2009) Nucleic acids research 37: […]-311. No statistical correction was selected. Gene lists were further analyzed using ClueGO, a plugin for Cytoscape designed to decipher functionally grouped gene ontology and pathway annotation networks. Bindea et al. (2009) Bioinformatics 25: 1091-1093. At the time of data analysis, the annotation files were updated from sources to Jan. 1, 2015. “GO Term Fusion” was enabled to manage ontologic term redundancy and network specificity was set to medium. Results were restricted to pathways with p≤0.05 using Benjamini-Hochberg correction and Kappa scoring was set to 0.4. Biocyc annotations were assigned a rectangle, gene ontology biologic processes were assigned an ellipse, and […] annotations were assigned a diamond shape. No meaning was assigned to size or color. […]

C[C@@H]1O[C@@H](O[C@H]2[C@H](O[C@H]3[C@H](O)[C@@H](O)C(O)O[C@@H]3CO)O[C@H](CO)[C@H](O)[C@@H]2O)[C@@H](O)[C@H](O)[C@@H]1O (stereo partly drawn) [2′-FL, 2′-fucosyllactose]
Fold Change (Pre- to Post-op) (gene Slc10a6): −4.135
Fold Change (Pre- to Post-op) (gene Slc12a4): −3.23
Fold Change (Pre- to Post-op) (gene Slc12a7): −3.214
Fold Change (Pre- to Post-op) (gene Slc16a2): −3.982
Fold Change (Pre- to Post-op) (gene Slc18a3): −3.831
Fold Change (Pre- to Post-op) (gene Slc25a23): −4.08
Fold Change (Pre- to Post-op) (gene Slc26a2): −3.385
Fold Change (Pre- to Post-op) (gene Slc27a1): −3.365
Fold Change (Pre- to Post-op) (gene Slc29a3): −6.657
Fold Change (Pre- to Post-op) (gene Slc29a4): −8.795
Fold Change (Pre- to Post-op) (gene Slc35d3): −3.219
Fold Change (Pre- to Post-op) (gene Slc35f1): −4.695
Fold Change (Pre- to Post-op) (gene Slc36a2): −12.88
Fold Change (Pre- to Post-op) (gene Slc38a1): −4.668
Fold Change (Pre- to Post-op) (gene Slc38a3): −3.363
Fold Change (Pre- to Post-op) (gene Slc41a1): −6.805
Fold Change (Pre- to Post-op) (gene Slc44a2): −3.36
Fold Change (Pre- to Post-op) (gene Slc52a3): −3.531
Fold Change (Pre- to Post-op) (gene Slco2a1): −3.663
Fold Change (Pre- to Post-op) (gene Slco3a1): −3.762
Fold Change (Pre- to Post-op) (gene Slfn8): −3.54
Fold Change (Pre- to Post-op) (gene Slfn10-ps): −5.224
Fold Change (Pre- to Post-op) (gene Slit2): −4.689
Fold Change (Pre- to Post-op) (gene Sltm): −3.235
Fold Change (Pre- to Post-op) (gene Smad3): −3.943
Fold Change (Pre- to Post-op) (gene Smad9): −9.063
Fold Change (Pre- to Post-op) (gene Smarca2): −3.748
Fold Change (Pre- to Post-op) (gene Smarca4): −3.199
Fold Change (Pre- to Post-op) (gene Smarcc1): −3.386
Fold Change (Pre- to Post-op) (gene Smarcc2): −4.201
Fold Change (Pre- to Post-op) (gene Smc1a): −3.44
Fold Change (Pre- to Post-op) (gene Smg6): −3.269
Fold Change (Pre- to Post-op) (gene Snap91): −6.873
Fold Change (Pre- to Post-op) (gene Snapc4): −3.061
Fold Change (Pre- to Post-op) (gene Sncaip): −3.352
Fold Change (Pre- to Post-op) (gene Snph): −5.496
Fold Change (Pre- to Post-op) (gene Sntb1): −6.247
Fold Change (Pre- to Post-op) (gene Snx29): −4.109
Fold Change (Pre- to Post-op) (gene Snx30): −7.296
Fold Change (Pre- to Post-op) (gene Sobp): −4.113
Fold Change (Pre- to Post-op) (gene Socs7): −4.313
Fold Change (Pre- to Post-op) (gene Sorbs3): −3.021
Fold Change (Pre- to Post-op) (gene Sort1): −3.517
Fold Change (Pre- to Post-op) (gene Sox4): −3.393
Fold Change (Pre- to Post-op) (gene Sox5): −3.24
Fold Change (Pre- to Post-op) (gene Sox6): −3.424
Fold Change (Pre- to Post-op) (gene Sox18): −4.518
Fold Change (Pre- to Post-op) (gene Sp2): −4.073
Fold Change (Pre- to Post-op) (gene Sparcl1): −4.284
Fold Change (Pre- to Post-op) (gene Spata13): −3.562
Fold Change (Pre- to Post-op) (gene Spock2): −8.059
Fold Change (Pre- to Post-op) (gene Spred2): −3.381
Fold Change (Pre- to Post-op) (gene Spry1): −3.34
Fold Change (Pre- to Post-op) (gene Sptan1): −4.234
Fold Change (Pre- to Post-op) (gene Sptb): −9.371
Fold Change (Pre- to Post-op) (gene Srgap1): −8.901
Fold Change (Pre- to Post-op) (gene Srgap3): −6.097
Fold Change (Pre- to Post-op) (gene Srrm2): −3.923
Fold Change (Pre- to Post-op) (gene Ssbp3): −3.347
Fold Change (Pre- to Post-op) (gene Ssh1): −5.471
